# Part of at least one peptide drawing is inferred or uncertain, most often the ends. *1 amine or outer side, *2 acyl side, *3 side chain or, on linkers, in order; H or OH if unused. Where a SMILES comes first, the peptide text is derived from it. Side-chain parts run from the residue outwards. [ ]: non-standard residue; d: D form. The star is where a group is joined. DOTA = O=C(O)CN1CCN(CC(=O)O)CCN(CC(=O)*)CCN(CC(=O)O)CC1; Ethylenediamine = C(CN[*:2])N[*:1]; Hyp = O=C(O)[C@@H]1C[C@@H](O)CN1; Phg = N[C@H](C(=O)O)c1ccccc1; CO = O=C([*:1])[*:2]; Bn = c1ccc(C*)cc1
# Assays:
# [1] = system: exocrine pancreatic tumor expressing hsst2 receptors; assay: In vivo tumor accumulation and detection of complexed conjugate; parameters: species or system mice or rats; details: complexed with e.g. 111In, 88Y, 90Y or 177Lu; 4 hours after injection
# [2] = system: AR42J rat pancreatic tumor cells or NCI-H69 human small cell lung cancer cells; assay: Nude mice tests with radiolabelled conjugate (AR42J or NCI-H69 tumors); type: in vivo; details: complexed with 90Y, single application
# somatostatin receptors = assay: Binding of conjugated Compound A and its complexes to somatostatin receptors; details: complexed with e.g. 111In, 88Y, 90Y or 177Lu
compound,measurement,setting,value
"NCCCC[C@@H]1NC(=O)[C@@H](Cc2c[nH]c3ccccc23)NC(=O)[C@H](c2ccccc2)NC(=O)[C@@H]2C[C@@H](OC(=O)NCCNC(=O)CN3CCN(CC(=O)O)CCN(CC(=O)O)CCN(CC(=O)O)CC3)CN2C(=O)[C@H](Cc2ccccc2)NC(=O)[C@H](Cc2ccc(OCc3ccccc3)cc2)NC1=O [Example 3, Cyclo[{4-(DOTA-NH—C2H4—NH—CO—O—)Pro}-Phg-DTrp-Lys-Tyr(4-Bzl)-Phe] (cyclo(F[Hyp]([CO-Ethylenediamine-DOTA])[Phg][dW]KY(Bn)))",Tumor accumulation,[1],significant tumor accumulation
same,Tumor growth delay,[2],delayed for two weeks
same,"Transient tumor shrinkage, of initial",[2]; after one week,up to 50%
same,Binding to the respective sst sub-types,somatostatin receptors,binds in the nM range

# — US9035021B2, “Somatostatin analogues” (Novartis AG, priority 2001, dated 2015)
